Data reported in paper PMC7057996, “Human glutaredoxin-1 can transfer copper to isolated metal binding domains of the P1B-type ATPase, ATP7B” (Scientific Reports, 2020).
These are yes or no findings as the source states them, for the method shown. Some results given as binding are weak or reduced against the parent protein; the word gives no strength.

The chains behind the UniProt entries cited, without tags or fusion partners.
UniProt P35754: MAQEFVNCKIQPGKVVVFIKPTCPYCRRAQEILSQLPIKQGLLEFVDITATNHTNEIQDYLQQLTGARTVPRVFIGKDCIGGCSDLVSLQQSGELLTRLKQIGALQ

Target: human glutaredoxin-1 (human) (UniProt P35754)
Test: NMR titration; 15N-1H HSQC of 15N-Cu(I)-hGrx1 (320-350 uM) titrated with unlabelled apo-Atox1 or apo-WLN5-6 to final ratios 3.8:1 and 7.1:1 (partner:hGrx1); Cu is transferred to the partner during the titration; 4 °C; 10 mM MES/Na, 50 mM NaCl, 1 mM TCEP, pH 6.0; both purified

B1: ATP7B metal binding domains 5-6 (domain or fragment, UniProt P35670 486-633)
chain: APQKCFLQIKGMTCASCVSNIERNLQKEAGVLSVLVALMAGKAEIKYDPEVIQPLEIAQFIQDLGFEAAVMEDYAGSDGNIELTITGMTCASCVHNIESKLTRTNGITYASVALATSKALVKFDPEIIGPRDIIKIIEEIGFHASLAQ
For B1, which binding is on record?
The binding was “binds weakly”.
